Source: patent US6495314B1, “Process for characterizing proteins” (The Scripps Research Institute, priority 1995, dated 2002)
Not every detail of the peptide structures is certain; ends, links or a residue may be inferred.

Protein sequences, listed by entry. Tags and fused reporters are not part of them. Lines headed by an entry give the natural chain unless they say otherwise; changes in a name come on top. Residues count along the entry.
UniProt Q64010, 134-191: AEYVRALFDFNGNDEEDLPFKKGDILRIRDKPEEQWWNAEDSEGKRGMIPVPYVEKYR
UniProt Q13905: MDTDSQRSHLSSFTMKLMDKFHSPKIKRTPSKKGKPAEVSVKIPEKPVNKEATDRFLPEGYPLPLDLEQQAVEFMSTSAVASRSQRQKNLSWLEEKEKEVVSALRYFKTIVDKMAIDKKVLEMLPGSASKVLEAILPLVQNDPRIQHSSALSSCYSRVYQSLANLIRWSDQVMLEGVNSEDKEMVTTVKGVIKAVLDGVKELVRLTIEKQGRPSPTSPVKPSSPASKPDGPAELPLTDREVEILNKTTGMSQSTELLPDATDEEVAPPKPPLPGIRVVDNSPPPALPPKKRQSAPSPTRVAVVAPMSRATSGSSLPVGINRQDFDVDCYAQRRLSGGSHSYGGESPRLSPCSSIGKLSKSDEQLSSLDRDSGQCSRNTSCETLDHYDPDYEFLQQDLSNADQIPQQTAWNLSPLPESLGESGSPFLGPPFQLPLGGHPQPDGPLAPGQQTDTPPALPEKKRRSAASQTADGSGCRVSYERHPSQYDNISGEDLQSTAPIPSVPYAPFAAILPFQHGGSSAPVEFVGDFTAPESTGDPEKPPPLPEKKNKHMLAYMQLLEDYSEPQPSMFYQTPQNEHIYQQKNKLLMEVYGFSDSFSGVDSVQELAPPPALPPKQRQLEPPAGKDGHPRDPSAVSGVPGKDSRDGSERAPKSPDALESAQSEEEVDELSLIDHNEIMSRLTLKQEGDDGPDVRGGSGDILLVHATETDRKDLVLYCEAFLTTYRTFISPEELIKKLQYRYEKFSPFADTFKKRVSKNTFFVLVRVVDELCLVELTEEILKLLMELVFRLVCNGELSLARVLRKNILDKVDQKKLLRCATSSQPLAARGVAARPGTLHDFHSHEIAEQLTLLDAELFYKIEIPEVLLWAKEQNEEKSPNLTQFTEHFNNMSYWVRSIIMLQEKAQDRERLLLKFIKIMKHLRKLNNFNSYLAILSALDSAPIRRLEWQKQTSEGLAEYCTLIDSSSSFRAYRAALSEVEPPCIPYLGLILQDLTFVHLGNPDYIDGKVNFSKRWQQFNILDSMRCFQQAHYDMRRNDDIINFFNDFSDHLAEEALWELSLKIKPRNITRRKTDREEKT
UniProt P01210: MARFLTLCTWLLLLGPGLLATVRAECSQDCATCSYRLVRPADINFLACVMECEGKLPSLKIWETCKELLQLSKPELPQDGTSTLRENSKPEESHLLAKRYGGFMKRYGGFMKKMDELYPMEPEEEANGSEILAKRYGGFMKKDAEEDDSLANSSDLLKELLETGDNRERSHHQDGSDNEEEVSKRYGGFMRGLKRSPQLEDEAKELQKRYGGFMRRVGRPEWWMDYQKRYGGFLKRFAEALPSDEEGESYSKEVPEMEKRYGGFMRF

Key:
[1] = biological target: T1, N-terminal cCrk SH3 domain (Mus musculus, UniProt Q64010); conditions: recombinantly derived SH3 domain; Wu et al. Structure 1995; read-out: affinity reported for a recombinantly derived SH3 domain; cited from earlier work
T1 construct: corresponding to residues 134-191 of the full cCrk signaling protein; made in house; host or cells: total chemical synthesis (stepwise Boc solid phase peptide synthesis), no expression host

[2] = biological target: T2, C3G-derived synthetic peptide (Homo sapiens, UniProt Q13905); assay: C3G-derived synthetic peptide affinity column binding with MALDI readout; conditions: washes up to 1 M NaCl and 1 M NH2OH, eluted only by 6M Gn.HCl
T2 construct: made in house; host or cells: chemical synthesis on 4-methyl benzhydrylamine resin
Experimental: An affinity column carrying a synthetic C3G derived peptide was prepared by reaction of the cysteine side chain of Acetyl-CWAcp-[…].amide (SEQ NO ID NO 14) with an iodoacetylated agarose matrix. The linker Acetyl-CWAcp- was designed to combine a reactive sulfhydryl on the Cys sidechain with a spectroscopic tag in the Trp residue, and to introduce a flexible spacer region between the support and the peptide ligand in the form of ε-aminocaproic acid. The amount of peptide on the column, was determined as 5 μmol/mL of the swollen agarose matrix from the absorbance at 280 nm of the peptide solution before and after reaction with the column.
The column was then washed with 0.5 M NaCl buffer to remove nonspecific binding proteins from the column. Specifically bound protein analogues were then eluted with 1 M hydroxylamine bufffer. Amounts of eluted peptide were monitored by UV absorbance at 280 nm. This procedure was used for both the C3G peptide column and for the control column loaded with Ac-C-AcpYGGFL.amide. The hydroxylamine cleavage of the thioester bond results in the elution of peptide fragments corresponding to the proteins which were able to bind to the affinity column under these conditions. Specific binding was found only for the C3G peptide column.
The composition of the parent array of SH3 protein analogues, as well as the binding and non-binding fractions obtained from affinity chromatography was determined by chemical cleavage and MALDI MS. First, the parent array of folded protein analogues and the 0.5 M NaCl wash from the affinity chromatography of the array were cleaved separately with hydroxylamine. After a desalting step, MALDI mass spectra were obtained for the peptide fragments generated from the (parent) protein array, the salt wash (non-binding) and for the peptide fragments generated by the hydroxylamine elution of the specifically bound analogues (binding). Nine components were present in the array of protein analogues that was added to the C3G column as one mixture (FIG. 26A). […]

leucine enkephalin = biological target: T3, leucine enkephalin (Homo sapiens, UniProt P01210); assay: Control affinity column (leucine enkephalin peptide), non-specific binding; conditions: leucine enkephalin derived peptide column, identical conditions
T3 construct: (YGGFL=leucine enkephalin); made in house; host or cells: chemical synthesis on 4-methyl benzhydrylamine resin

Question: Which Kd [1] does the source give for `CC(C)C[C@H](NC(=O)[C@H](C)NC(=O)[C@@H]1CCCN1C(=O)[C@@H]1CCCN1C(=O)[C@@H]1CCCN1)C(=O)N1CCC[C@H]1C(=O)N1CCC[C@H]1C(=O)N[C@@H](CCCCN)C(=O)N[C@@H](CCCCN)C(=O)N[C@@H](CCCNC(=N)N)C(N)=O` [C3G] here?
Answer: 1900 nM

Question: For `CC[C@H](C)[C@H](NC(=O)[C@H](CC(=O)O)NC(=O)CNC(=O)[C@H](CCCCN)NC(=O)[C@H](CCCCN)NC(=O)[C@H](Cc1ccccc1)NC(=O)[C@@H]1CCCN1C(=O)[C@H](CC(C)C)NC(=O)[C@H](CC(=O)O)NC(=O)[C@H](CCC(=O)O)NC(=O)[C@H](CCC(=O)O)NC(=O)[C@H](CC(=O)O)NC(=O)[C@H](CC(N)=O)NC(=O)CNC(=O)[C@H](CC(N)=O)NC(=O)[C@H](Cc1ccccc1)NC(=O)[C@H](CC(=O)O)NC(=O)[C@H](Cc1ccccc1)NC(=O)[C@H](CC(C)C)NC(=O)[C@H](C)NC(=O)[C@H](CCCNC(=N)N)NC(=O)[C@@H](NC(=O)[C@H](Cc1ccc(O)cc1)NC(=O)[C@H](CCC(=O)O)NC(=O)[C@H](C)N)C(C)C)C(=O)N[C@@H](CC(C)C)C(=O)N[C@@H](CCCNC(=N)N)C(=O)N[C@H](C(=O)N[C@@H](CCCNC(=N)N)C(=O)N[C@@H](CC(=O)O)C(=O)N[C@@H](CCCCN)C(=O)N1CCC[C@H]1C(=O)N[C@@H](CCC(=O)O)C(=O)N[C@@H](CCC(=O)O)C(=O)N[C@@H](CCC(N)=O)C(=O)N[C@@H](Cc1c[nH]c2ccccc12)C(=O)N[C@@H](Cc1c[nH]c2ccccc12)C(=O)N[C@@H](CC(N)=O)C(=O)N[C@@H](C)C(=O)N[C@@H](CCC(=O)O)C(=O)N[C@@H](CC(=O)O)C(=O)N[C@@H](CO)C(=O)N[C@@H](CCC(=O)O)C(=O)NCC(=O)N[C@@H](CCCCN)C(=O)N[C@@H](CCCNC(=N)N)C(=O)NCC(=O)N[C@@H](CCSC)C(=O)N[C@H](C(=O)N1CCC[C@H]1C(=O)N[C@H](C(=O)N1CCC[C@H]1C(=O)N[C@@H](Cc1ccc(O)cc1)C(=O)N[C@H](C(=O)N[C@@H](CCC(=O)O)C(=O)N[C@@H](CCCCN)C(=O)N[C@@H](Cc1ccc(O)cc1)C(=O)N[C@@H](CCCNC(=N)N)C(=O)O)C(C)C)C(C)C)[C@@H](C)CC)[C@@H](C)CC` [synthetic Crk-N], which “specific binding of native sequence protein to C3G peptide affinity column” value ([2]; listed as cCrk N-terminal SH3 domain) is on record?
Answer: remained bound to the column throughout the NaCl and NH2OH washes

Question: And the “specific binding of native sequence protein to C3G peptide affinity column” value ([2]; listed as synthetic SH3 domain)?
Answer: bind specifically

Question: And the “specific binding of native sequence protein to C3G peptide affinity column” value ([2]; listed as synthetic c-Crk SH3)?
Answer: did not elute from the column under any of these conditions

Question: And the “specific binding to control affinity column” value (leucine enkephalin; listed as synthetic SH3 domain)?
Answer: did not specifically bind

Question: And the “specific binding to control affinity column” value (leucine enkephalin; listed as synthetic c-Crk SH3 domain)?
Answer: No specific binding
